Source: the supplement of paper PMC12024529
Structures can show the parent of a compound that is named as a salt. The list shows a part of the results. Baselines shift from plate to plate; read single values as rough.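 HEK293 lines stably express B-domain-deleted factor VIII fused to Gaussia luciferase, wild type or a misfolding-prone missense mutant. Scores equal triplicate-well mean luminescence minus DMSO mean, divided by DMSO standard deviation; scores of 2 or higher are hits. Low scores may indicate reduced secretion or worse cell viability.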

Assays:
HEK293 WT BDD-FVIII-Gluc = experiment: secreted FVIII-Gluc luciferase Z-score vs DMSO control; higher = more FVIII-Gluc secretion; settings: 5 µM; 24 h
[1] = system: HEK293 p.N1941S BDD-FVIII-Gluc; experiment: as above; settings: 5 µM; 24 h

Row | Compound | secreted FVIII-Gluc luciferase Z-score (HEK293 WT BDD-FVIII-Gluc) | secreted FVIII-Gluc luciferase Z-score [1]
1 | CC1=C(CC(=O)O)c2cc(F)ccc2/C1=C\c1ccc([S+](C)[O-])cc1 (stereo unspecified) [Sulindac (Clinoril)] | inactive: 0.159 | inactive: -1.72
2 | N#CC1(c2ccc(NC(=O)c3cccnc3NCc3ccncc3)cc2)CCCC1 [Apatinib (YN968D1)] | inactive: -0.0563 | inactive: -1.08
3 | Cc1cc2c(s1)Nc1ccccc1N=C2N1CCN(C)CC1 [Olanzapine (Zyprexa)] | inactive: 0.994 | inactive: -5.78
4 | C[N+]1(C)[C@@H]2C[C@@H](OC(=O)C(O)(c3cccs3)c3cccs3)C[C@H]1[C@@H]1O[C@@H]12 [Tiotropium Bromide hydrate] | inactive: -1.37 | inactive: -1.02
5 | CCOC(=O)c1ncn2c1CN(C)C(=O)c1cc(F)ccc1-2 [Flumazenil] | inactive: -1.38 | inactive: 0.868
6 | Cc1cc(C)nc(NS(=O)(=O)c2ccc(N)cc2)n1 [Sulfamethazine] | inactive: 0.189 | inactive: -0.79
7 | CN(C)CCC=C1c2ccccc2CCc2ccccc21 [Amitriptyline HCl] | inactive: -0.784 | inactive: -0.612
8 | CCCNC(=O)NS(=O)(=O)c1ccc(Cl)cc1 [Chlorpropamide] | inactive: 1.98 | inactive: 0.989
9 | CN1CCN(c2c(F)cc3c(=O)c(C(=O)O)cn4c3c2OCN4C)CC1 [Marbofloxacin] | inactive: -3 | inactive: 0.967
10 | Cc1ccnc2c1NC(=O)c1cccnc1N2C1CC1 [Nevirapine (Viramune)] | inactive: -0.466 | inactive: -0.928
11 | NS(=O)(=O)c1cc2c(cc1Cl)NCNS2(=O)=O [Hydrochlorothiazide] | inactive: -1.84 | inactive: 1.37
12 | Clc1ccc2c(c1)CCc1cccnc1C2=C1CCNCC1 [Desloratadine] | inactive: -1.03 | inactive: -3.32
13 | COc1ccc2cc([C@H](C)C(=O)O)ccc2c1 [Naproxen (Aleve)] | inactive: 0.921 | inactive: 0.834
14 | COc1c(N2CCNC(C)C2)c(F)cc2c(=O)c(C(=O)O)cn(C3CC3)c12 (stereo unspecified) [Gatifloxacin] | inactive: -4.32 | inactive: -2.53
15 | CC(C[N+](C)(C)C)OC(N)=O (stereo unspecified) [Bethanechol chloride] | inactive: 0.126 | inactive: -6.17
16 | CC(C)NCC(O)c1cc(O)cc(O)c1 (stereo unspecified) [Metaproterenol Sulfate] | inactive: -1.24 | inactive: 0.459
17 | Cc1cccc(C)c1NC(=O)C1CCCCN1C (stereo unspecified) [Mepivacaine HCl] | inactive: -1.33 | inactive: -0.792
18 | CCCC(CCC)C(=O)O [Valproic acid sodium salt (Sodium valproate)] | inactive: 0.143 | active: 2.78
19 | O=C(O[C@H]1CN2CCC1CC2)N1CCc2ccccc2[C@@H]1c1ccccc1 [Solifenacin succinate] | inactive: -3.53 | inactive: -1.32
20 | N=C(N)c1ccc(OCCCCCOc2ccc(C(=N)N)cc2)cc1 [Pentamidine] | inactive: -2.22 | inactive: -1.45
21 | Clc1ccc(COC(Cn2ccnc2)c2ccc(Cl)cc2Cl)c(Cl)c1 (stereo unspecified) [Miconazole (Monistat)] | inactive: -1.62 | inactive: -2.08
22 | O=S(=O)(O)NC1CCCCC1 [Cyclamic  acid] | inactive: -0.47 | inactive: -1.87
23 | CC(=O)O[C@]1(C(C)=O)CC[C@H]2[C@@H]3C[C@H](C)C4=CC(=O)C=C[C@]4(C)[C@@]3(F)[C@@H](O)C[C@@]21C [Fluorometholone Acetate] | active: 2.72 | active: 3.89
24 | CCCN[C@H]1CCc2nc(N)sc2C1 [Pramipexole (Mirapex)] | inactive: -1.76 | inactive: -0.887
25 | COc1cc(OC)c(C(=O)CCCN2CCCC2)c(OC)c1 [Buflomedil HCl] | inactive: -1.73 | inactive: -0.214
26 | Cc1cc(NC(=O)C2=C(O)c3ccccc3S(=O)(=O)N2C)no1 [Isoxicam] | inactive: -2.03 | inactive: 1.41
27 | c1ccc2c(CC3=NCCN3)cccc2c1 [Naphazoline hydrochloride (Naphcon)] | inactive: 0.0547 | inactive: -1.92
28 | CC(C)(C)C(=O)C(Oc1ccc(Cl)cc1)n1ccnc1 (stereo unspecified) [Climbazole] | inactive: -0.773 | inactive: 0.459

Look-ups from the list:
Entry of `C[N+]1(C)[C@@H]2C[C@@H](OC(=O)C(O)(c3cccs3)c3cccs3)C[C@H]1[C@@H]1O[C@@H]12` [Tiotropium Bromide hydrate] under secreted FVIII-Gluc luciferase Z-score [1]: inactive: -1.02
Entry of `Clc1ccc(COC(Cn2ccnc2)c2ccc(Cl)cc2Cl)c(Cl)c1` (stereo unspecified) [Miconazole (Monistat)] under secreted FVIII-Gluc luciferase Z-score [1]: inactive: -2.08
